{"sequences": {"note": "Chains of the proteins cited; added tags and fusions are not shown.", "UniProt Q0JBA9, entry or part of it": "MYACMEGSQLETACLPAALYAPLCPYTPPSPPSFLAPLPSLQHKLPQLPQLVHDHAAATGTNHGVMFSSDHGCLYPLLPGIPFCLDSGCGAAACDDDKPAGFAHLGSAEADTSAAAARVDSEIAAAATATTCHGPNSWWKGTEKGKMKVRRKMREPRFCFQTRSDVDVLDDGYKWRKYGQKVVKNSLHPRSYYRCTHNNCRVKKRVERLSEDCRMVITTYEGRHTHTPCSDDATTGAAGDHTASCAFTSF"}, "source": "paper PMC7819943", "about": "“Rice protein-binding microarrays: a tool to detect cis-acting elements near promoter regions in rice”", "note": "The list shows a part of the results."}
{"target": "OsWRKY34 (Oryza sativa, UniProt Q0JBA9 1-250)", "assay": "protein-binding microarray (RPBM); PBS, 2% BSA, 51.3 ng/ul salmon testes DNA, 50 uM zinc acetate, 200 nM TF, 25 C, 1 h; high values mean tight binding", "conditions": "protein: recombinant; tags: N-terminal polyhistidine and DsRed monomer fusion (pET32a); label: CyDye5-dUTP incorporated in the synthesized complementary strand; 3' TTTTT single-stranded linker to array surface; dsDNA, one strand shown", "method_in_brief": "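Per-feature fluorescence intensity (arbitrary units), read on an Axon 4000B scanner, is the binding signal. Transcription factors carrying an N-terminal polyhistidine tag and DsRed fusion were expressed in E. coli BL21-CodonPlus and purified on Ni–NTA. A custom Agilent array, made double-stranded by primer extension with Cy5-dUTP and blocked with 2% BSA, was incubated with 200 nM protein in PBS, 2% BSA, salmon testes DNA and 50 µM zinc acetate at 25 °C for 1 h and then washed.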"}
{"sequence": "TCCAAGTTCCCAACAAATTACCATATTTTTTATTGCGTTTCGGAGTCACCTAGTGCAG", "binding signal": "9010 fluorescence intensity (a.u.)"}
{"sequence": "CAAGCACACGCACACGCACACCACACAGTCTACCTATACCCGGAGTCACCTAGTGCAG", "binding signal": "8370 fluorescence intensity (a.u.)"}
{"sequence": "TAGCCCACCACCGACGCCCTCGTTGACATGAAGTTTTATTCGGAGTCACCTAGTGCAG", "binding signal": "10200 fluorescence intensity (a.u.)"}
{"sequence": "CTTCTCTCCTTCTATTCCTTTCAGGCAATTCATCGAGCACCGGAGTCACCTAGTGCAG", "binding signal": "10200 fluorescence intensity (a.u.)"}
{"sequence": "GCCTCTGGAAGGTACGGACCCCTTCCACTTTTGGGCCGGCCGGAGTCACCTAGTGCAG", "binding signal": "8820 fluorescence intensity (a.u.)"}
{"sequence": "CATGGTCGCCAACACCCTCCACGCCTGCGCCGTCCTCCTCCGGAGTCACCTAGTGCAG", "binding signal": "8410 fluorescence intensity (a.u.)"}
{"sequence": "GTACAACCTGTGATTCCTCCACCACTGATTCGCCCTGTTTCGGAGTCACCTAGTGCAG", "binding signal": "12400 fluorescence intensity (a.u.)"}
{"sequence": "GTCTCTTCGTCGTATCCATTGCGAGAAGCTGCGCCGCATCCGGAGTCACCTAGTGCAG", "binding signal": "8820 fluorescence intensity (a.u.)"}
{"sequence": "CGTGTGTGTTTCTTGGGGCTGAGCTGTTTGCTCTCCTGGTCGGAGTCACCTAGTGCAG", "binding signal": "9440 fluorescence intensity (a.u.)"}
{"sequence": "TTGTAGCTGATCTGTACTGTCTGATCGATTTGTATATATCCGGAGTCACCTAGTGCAG", "binding signal": "10400 fluorescence intensity (a.u.)"}
{"sequence": "CCACCTCACCCTCACCCGTAGTCGCCCACACGCAAACGATCGGAGTCACCTAGTGCAG", "binding signal": "11100 fluorescence intensity (a.u.)"}
{"sequence": "TCCCAATCCCACCTTTCATATATCATTTGTCAAACACACCCGGAGTCACCTAGTGCAG", "binding signal": "8840 fluorescence intensity (a.u.)"}
{"sequence": "GTGCTATTCTGTTTGTTGTGATTGCTGAATTAGATCAAGACGGAGTCACCTAGTGCAG", "binding signal": "8250 fluorescence intensity (a.u.)"}
{"sequence": "TCTCTTCTTTTATTTCCTTGACGTGTGTTATAGCTCTTCTCGGAGTCACCTAGTGCAG", "binding signal": "11900 fluorescence intensity (a.u.)"}
{"sequence": "GGATGCTCCTTCTGTGTGTCTTCTGCTGGTCTTGGTGATCCGGAGTCACCTAGTGCAG", "binding signal": "8550 fluorescence intensity (a.u.)"}
{"sequence": "TCCTGCTGCTTCCACCGCGTCCTCGCCTGCCTGCCTGCCGCGGAGTCACCTAGTGCAG", "binding signal": "9500 fluorescence intensity (a.u.)"}
{"sequence": "TCCCTTTGCTCAATTTCAGTTTCTTTTTCTTTTGCTTTGGCGGAGTCACCTAGTGCAG", "binding signal": "8860 fluorescence intensity (a.u.)"}
{"sequence": "GTCTCGCAATTTACATGTAATATGTGTAATTGATTTTTTTCGGAGTCACCTAGTGCAG", "binding signal": "9190 fluorescence intensity (a.u.)"}
{"sequence": "CTCTGAAGCCTCTTCTTCTTCCTCTGATTCCTCTCTCCTTCGGAGTCACCTAGTGCAG", "binding signal": "9080 fluorescence intensity (a.u.)"}
{"sequence": "ACATGTCTGCTTTGTTATTCATTGGCTTGTTGGACAATACCGGAGTCACCTAGTGCAG", "binding signal": "9150 fluorescence intensity (a.u.)"}
{"sequence": "TTTATTTCTGGATGATAAGCTGTTCCTCTTTTTTTCAATACGGAGTCACCTAGTGCAG", "binding signal": "9590 fluorescence intensity (a.u.)"}
{"sequence": "ACTTTTTTGTTGATGATTTTTTCAGTTGAAATTATTTAGTCGGAGTCACCTAGTGCAG", "binding signal": "8830 fluorescence intensity (a.u.)"}
{"sequence": "CTGTTCCTCACCACAGCTCGGTTTTGCACATCCGGTTTTCCGGAGTCACCTAGTGCAG", "binding signal": "9270 fluorescence intensity (a.u.)"}
